{"source": "PubChem BioAssay AID1259308 (NCATS, 2017)", "assay": "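Knock-downs that increase output of a recombinant reporter protein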 (primary screen)", "system": "human HEK293 embryonic kidney cells stably expressing firefly luciferase (HEK-CMV-Luc2-Hygro)", "reagents": "single siRNA against human genes, 0.8 pmol siRNA per well", "timing": "72 h", "detection": "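Reporter luminescence and viable-cell signal on separate replicate plates, given as percent of non-targeting control and median/MAD z-scores, plus per-cell luciferase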", "reading the numbers": "total luciferase, z-score and total luciferase, % of control: higher = more reporter protein produced", "hit rule": "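An siRNA counts as active if its total luciferase robust z-score exceeds 3; genes with two or more such siRNAs out of three were retested with fresh siRNAs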", "meaning of the calls": "active = raised luciferase; inactive = no rise", "note": "The deposit covers about 59,000 reagents; this is a random part of them. About 1,510 of them (2.6%) were called active. 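Calls use total luciferase alone and ignore viability, so some active siRNAs may act by altering cell number.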 Reagents against one gene are numbered here. Further read-outs or replicates are left out here. Reagent sequences are not shown."}
{"gene symbol": "PDE7B (phosphodiesterase 7B)", "reagent": 1, "total luciferase, z-score": 0.685, "total luciferase, % of control": 95.5, "outcome": "inactive"}
{"gene symbol": "PDE7B (phosphodiesterase 7B)", "reagent": 2, "total luciferase, z-score": -2.05, "total luciferase, % of control": 41.1, "outcome": "inactive"}
{"gene symbol": "PDE7B (phosphodiesterase 7B)", "reagent": 3, "total luciferase, z-score": 0.17, "total luciferase, % of control": 85.3, "outcome": "inactive"}
{"gene symbol": "CENPI (centromere protein I)", "reagent": 1, "total luciferase, z-score": 0.105, "total luciferase, % of control": 84, "outcome": "inactive"}
{"gene symbol": "CENPI (centromere protein I)", "reagent": 2, "total luciferase, z-score": 0.0596, "total luciferase, % of control": 83.1, "outcome": "inactive"}
{"gene symbol": "CENPI (centromere protein I)", "reagent": 3, "total luciferase, z-score": -2.24, "total luciferase, % of control": 37.3, "outcome": "inactive"}
{"gene symbol": "THEM6 (thioesterase superfamily member 6)", "reagent": 1, "total luciferase, z-score": 0.268, "total luciferase, % of control": 87.2, "outcome": "inactive"}
{"gene symbol": "THEM6 (thioesterase superfamily member 6)", "reagent": 2, "total luciferase, z-score": 0.0395, "total luciferase, % of control": 82.7, "outcome": "inactive"}
{"gene symbol": "THEM6 (thioesterase superfamily member 6)", "reagent": 3, "total luciferase, z-score": 1.15, "total luciferase, % of control": 105, "outcome": "inactive"}
{"gene symbol": "BLZF1 (basic leucine zipper nuclear factor 1)", "reagent": 1, "total luciferase, z-score": -0.0574, "total luciferase, % of control": 80.7, "outcome": "inactive"}
{"gene symbol": "BLZF1 (basic leucine zipper nuclear factor 1)", "reagent": 2, "total luciferase, z-score": -1.21, "total luciferase, % of control": 57.8, "outcome": "inactive"}
{"gene symbol": "BLZF1 (basic leucine zipper nuclear factor 1)", "reagent": 3, "total luciferase, z-score": 0.0277, "total luciferase, % of control": 82.4, "outcome": "inactive"}
{"gene symbol": "TM4SF1 (transmembrane 4 L six family member 1)", "reagent": 1, "total luciferase, z-score": 1.17, "total luciferase, % of control": 105, "outcome": "inactive"}
{"gene symbol": "TM4SF1 (transmembrane 4 L six family member 1)", "reagent": 2, "total luciferase, z-score": 0.0023, "total luciferase, % of control": 81.9, "outcome": "inactive"}
{"gene symbol": "TM4SF1 (transmembrane 4 L six family member 1)", "reagent": 3, "total luciferase, z-score": -0.585, "total luciferase, % of control": 70.2, "outcome": "inactive"}
{"gene symbol": "LINC01014 (long independently transcribed non-coding RNA 1014)", "reagent": 1, "total luciferase, z-score": 1.95, "total luciferase, % of control": 121, "outcome": "inactive"}
{"gene symbol": "LINC01014 (long independently transcribed non-coding RNA 1014)", "reagent": 2, "total luciferase, z-score": 0.25, "total luciferase, % of control": 86.9, "outcome": "inactive"}
{"gene symbol": "LINC01014 (long independently transcribed non-coding RNA 1014)", "reagent": 3, "total luciferase, z-score": -2.57, "total luciferase, % of control": 30.7, "outcome": "inactive"}
{"gene symbol": "SYT1 (synaptotagmin 1)", "reagent": 1, "total luciferase, z-score": 0.501, "total luciferase, % of control": 91.9, "outcome": "inactive"}
{"gene symbol": "SYT1 (synaptotagmin 1)", "reagent": 2, "total luciferase, z-score": 0.977, "total luciferase, % of control": 101, "outcome": "inactive"}
{"gene symbol": "SYT1 (synaptotagmin 1)", "reagent": 3, "total luciferase, z-score": -0.299, "total luciferase, % of control": 75.9, "outcome": "inactive"}

Records listed so far whose gene name begins with S or s (3):
{"gene symbol": "SYT1 (synaptotagmin 1)", "reagent": 1, "total luciferase, z-score": 0.501, "total luciferase, % of control": 91.9, "outcome": "inactive"}
{"gene symbol": "SYT1 (synaptotagmin 1)", "reagent": 2, "total luciferase, z-score": 0.977, "total luciferase, % of control": 101, "outcome": "inactive"}
{"gene symbol": "SYT1 (synaptotagmin 1)", "reagent": 3, "total luciferase, z-score": -0.299, "total luciferase, % of control": 75.9, "outcome": "inactive"}
